The other results are listed elsewhere or left out.
B1: il2ra_site2_2erj_normal_mot_HHH_b2_06411_000000092_0001_40_56_H_._HHH_b2_06286_0001_0000200009_0000001_0 (protein)
chain: SSSSSDVEEEARELLEEAKELYEEGNLEEVYRLAVEVLRLASRYNNHEVQELLRRVLEEISSSSS
B2: il2ra_site2_3nfp_sap_28_mot_HHH_b1_05437_000000005_0001_40_57_H_._0f396a3c5b789435df01682a1ed80b82_0001_1_af2_0001_0000800020_0000001_0_0001 (protein)
chain: SSSSDEERVEELLEKVEELLKRGNPEEARKALREAAHIAYENNNSELYMKIAEYLFELVQSSSSS
B3: il2ra_site1_3nfp_normal_mot_HHH_b1_04931_000000291_0001_38_56_H_._5fa2c1a30f04debedfe40931e4d0b367_0001_af2_0001_0000700055_0000001_0 (protein)
chain: DVRFLLEAARFAGDELVVEVAEKLEELREEDPDDQEVKELVQKLLQLLAKDPEEAKKLAEELKRR
B4: il2ra_site2_2erj_normal_mot_HHH_b2_03093_af2_000000119_0001_18_34_H_._HHH_b1_04436_af2_0001_0000200013_0000001_0 (protein)
chain: SSSSDEIEELEKRAEELLEKGNPEEALEVLRKAFELAWRNRDFETISKIAELTKEVARRLASSSS
B5: il2ra_site2_2erj_normal_mot_90f6a21de4ed711cb697bb9f61d9c40c_0001_af2_000000135_0001_36_50_H_._HHH_b2_03327_0002_0000300013_0000001_0 (protein)
chain: SSSDREEVAERVVEELVKELGLDEEAQHQLEASARNAIESGFSPESIEWYLRAVAEHLLEQLSSS
B6: il2ra_site1_1z92_sap_27_mot_HHH_b1_04615_af2_000000156_0001_38_52_H_._HHH_b2_08158_0001_0001200051_0000001_0_0001 (protein)
chain: SSSSDRSAEWAFELAKAALRLYERSGDPKARERVEFVIRELEMLGNPELAEELEEILERIDSSSS
B7: il2ra_site1_2b5i_normal_mot_f5ff40796168375b462bec8614a1db4a_0001_1_000000138_0001_53_65_H_._HHH_b2_01747_af2_0001_0000400018_0000001_0_af2pred_dldesign_0_af2pr … (protein)
chain: SSSSMTLEEQVKEYLKKVDELKAQGKLDEAKKLLILARKVARKSGNEELLAEVEAKLKELSSSSS
B8: il2ra_site2_2erj_normal_mot_HHH_b2_01353_af2_000000049_0001_23_39_H_._HHH_b1_04436_af2_0001_0000800048_0000001_0 (protein)
chain: SSSSDEIEELLKEAKELLEKGNPEEADRVLRRASELAFENNDFEIFSEIAELLELVARLEASSSS
B9: il2ra_site2_2erj_normal_mot_HHH_b1_06078_000000236_0001_23_39_H_._HHH_b1_08670_0001_0000200019_0000001_0 (protein)
chain: SSSSNELTRRALEIIEEAFERGLSKEEIQELLEELLEEARELGDEDEVRLIESAIEYLRRLSSSS
B10: il2ra_site2_2erj_sap_25_mot_6ec3e94b46d95805cdcdc10c0c108f03_0001_af2_000000040_0001_36_50_H_._HHH_b1_00647_0001_0000300023_0000001_0_0001 (protein)
chain: SSSSDLREFAEEVVKRLVEELGLDEEQEEALEWAAEAAEEAGLDEELIEKWLRRMAEFLKSSSSS
B11: il2ra_site1_1z92_sap_12_mot_HHH_b2_02540_000000162_0001_1_16_H_._2d5a0e42518f7c0de0c8a0066b0bd8d1_0001_af2_0001_0000100001_0000001_0_0001 (protein)
chain: SSSSSEANEEQLEVAIRSAEIALEAGDPRAARRLLEFLLQQARLDNDEEARRLLEELLEELSSSS
B12: il2ra_site1_1z92_sap_12_mot_HHH_b2_02761_000000226_0001_1_18_H_._HHH_b1_05944_af2_0001_0000100001_0000001_0_0001_af2pred_0001_af2pred (protein)
chain: SSSSDEEAEELLEEVKEKLQELLERGDPEEAQKLANRAFERLLKLGNRELAEELNEFYRKLSSSS
B13: il2ra_site1_1z92_normal_mot_3c291a2f2994a8e029b17f9ec7f22732_0001_af2_000000144_0001_36_50_H_._66959ead3e6c57cb3ef8243f3eb758e0_0001_1_0001_0000100001_0000001_1 … (protein)
chain: STVEEDLREAVEKNDEELLRRFIKLALEDAGDPELVRQYLKILVKKLGLPPEVLERLEELLEELT
B14: il2ra_site1_2b5i_sap_13_mot_HHH_b1_05692_af2_000000143_0001_1_17_H_._HHH_b2_05362_0001_0000300024_0000001_0_0001 (protein)
chain: SSSSSDAAELIVEALLEEAEHIEDEHRRRSILHLALATARHRNNPELEELVEEVAEKLESSSSSS
B15: il2ra_site2_3nfp_normal_mot_HHH_b1_07543_000000150_0001_38_55_H_._HHH_b2_07046_0001_0000100002_0000001_0 (protein)
chain: SSSSDSEEYLRAALALLRRAVEEGDEELAEKHARLLILLAEDKGDEEVLEEARRLLELLNSSSSS
B16: il2ra_site1_3nfp_sap_18_mot_HHH_b1_08274_000000153_0001_43_57_H_._651d3f7ee3e35a0effb0e65a459b730c_0001_1_0001_0000400036_0000001_0_0001_af2pred_0001_af2pred_1_ … (protein)
chain: DAAERAIRRAEELAPPELEELLRRIWELIEENPDDAELLELLAKLIELIRRGNHEEAEELARRVT
B17: il2ra_site1_3nfp_normal_mot_HHH_b1_08274_000000153_0001_43_57_H_._HHH_b2_04752_0001_0000800040_0000001_0 (protein)
chain: SSSSSDVEEEVERLLEEAERLAEEGNQEEALELFEQVFRLIAKLGNPELDRLLFEWVARQSSSSS
B18: il2ra_site1_3nfp_normal_mot_HHH_b1_05162_af2_000000139_0001_1_18_H_._HHH_b1_02574_af2_0001_0000500035_0000001_0 (protein)
chain: SSSSNEERRRAQELLKEIKRAIKHGDEERAKELLEEVEELAEKANDKAAKWAVEELEKSLKSSSS

These binders were tested against il2ra, P01589 (assay: yeast display titration).

Row | Binder | apparent Kd
1 | B1 | inactive: no binding seen
2 | B2 | inactive: no binding seen
3 | B3 | inactive: no binding seen
4 | B4 | inactive: no binding seen
5 | B5 | inactive: no binding seen
6 | B6 | inactive: no binding seen
7 | B7 | inactive: no binding seen
8 | B8 | inactive: no binding seen
9 | B9 | inactive: no binding seen
10 | B10 | inactive: no binding seen
11 | B11 | inactive: no binding seen
12 | B12 | inactive: no binding seen
13 | B13 | inactive: no binding seen
14 | B14 | inactive: no binding seen
15 | B15 | inactive: no binding seen
16 | B16 | inactive: no binding seen
17 | B17 | inactive: no binding seen
18 | B18 | inactive: no binding seen

Rewritten comma-delimited: entries from further up.
Row,Binder,apparent Kd
14,B14,inactive: no binding seen
15,B15,inactive: no binding seen

— paper PMC10163288
